Measurements from the supplement of paper PMC10849652.
The other results are listed elsewhere or left out.

Chains of the proteins cited; added tags and fusions are not shown. Lines headed by an entry give the natural chain unless they say otherwise; changes in a name come on top.
UniProt P63172, whole entry, looked up: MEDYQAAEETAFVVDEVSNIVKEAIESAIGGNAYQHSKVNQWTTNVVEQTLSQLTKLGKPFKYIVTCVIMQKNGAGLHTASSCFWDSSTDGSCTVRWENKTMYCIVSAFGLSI
UniProt Q96FN9: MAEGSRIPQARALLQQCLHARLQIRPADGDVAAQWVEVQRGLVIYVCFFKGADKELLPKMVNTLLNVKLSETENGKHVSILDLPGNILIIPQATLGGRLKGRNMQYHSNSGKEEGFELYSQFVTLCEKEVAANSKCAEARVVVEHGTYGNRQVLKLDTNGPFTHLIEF

Experiments:
Experiment in all cases: log2 fold change, soluble protein after heating vs DMSO (PISA); higher = thermal stabilisation; K562 cells, 10 uM, 30 min; active = over 0.2 and 3.5 SD of the protein, either way, in both replicates (recomputed)
[1] = compound: COC1=CC=C(C=C1)CN2C=CC3=C2C=C(C=C3)C(=O)NO
Procedure, shortened: (§1)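 K562 cells at 2×10^6 cells/mL were given 10 μM compound for 30 min. Aliquots then went through 3 min of heating across 48°C-58°C, were pooled, and were extracted in PBS with 0.5% NP-40 at 4°C, and the supernatant after 21,000xg for 90 min was quantified by TMTpro 16plex LC-MS/MS with channel sums equalised. Thermal stability relative to control samples, from duplicates, is given as log2 fold change.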

filanesib = compound: CON(C)C(=O)N1N=C(c2cc(F)ccc2F)S[C@@]1(CCCN)c1ccccc1 [filanesib]
Procedure, shortened: as §1

alisertib = compound: COc1cc(Nc2ncc3c(n2)-c2ccc(Cl)cc2C(c2c(F)cccc2OC)=NC3)ccc1C(=O)O [alisertib]
Procedure, shortened: as §1

[2] = compound: COc1cc2nc(-c3cc(F)ccc3O)nc(N[C@@H]3CNC[C@H]3C(C)(C)O)c2cc1OC
Procedure, shortened: as §1

[3] = compound: COc1cccc2cc(-c3nc([C@H]4CC[C@H](C(=O)O)CC4)n4ncnc(N)c34)[nH]c12
Procedure, shortened: as §1

lapatinib = compound: CS(=O)(=O)CCNCc1ccc(-c2ccc3ncnc(Nc4ccc(OCc5cccc(F)c5)c(Cl)c4)c3c2)o1 [lapatinib]
Procedure, shortened: as §1

pictilisib = compound: CS(=O)(=O)N1CCN(Cc2cc3nc(-c4cccc5[nH]ncc45)nc(N4CCOCC4)c3s2)CC1 [pictilisib]
Procedure, shortened: as §1

zotarolimus = compound: CO[C@H]1C[C@@H]2CC[C@@H](C)[C@@](O)(O2)C(=O)C(=O)N2CCCC[C@H]2C(=O)O[C@H]([C@H](C)C[C@@H]2CC[C@H](n3cnnn3)[C@H](OC)C2)CC(=O)[C@H](C)/C=C(\C)[C@@H](O)[C@@H](OC)C(=O)[C@H](C)C[C@H](C)/C=C/C=C/C=C/1C [zotarolimus]
Procedure, shortened: as §1

idasanutlin = compound: COc1cc(C(=O)O)ccc1NC(=O)[C@@H]1N[C@@H](CC(C)(C)C)[C@](C#N)(c2ccc(Cl)cc2F)[C@H]1c1cccc(Cl)c1F [idasanutlin]
Procedure, shortened: as §1

gefitinib = compound: COc1cc2ncnc(Nc3ccc(F)c(Cl)c3)c2cc1OCCCN1CCOCC1 [gefitinib]
Procedure, shortened: as §1

Measured: log2 fold change

DNPEP (UniProt C9JBE1)
inactive: [1] -0.296 | filanesib 0.123 | alisertib -0.112 | [2] 0.273 | [3] 0.078 | lapatinib -0.182 | pictilisib 0.208

DYNLT1 (UniProt P63172)
inactive: [1] 0.236 | filanesib -0.158 | zotarolimus 0.127 | idasanutlin -0.08 | alisertib -0.071 | [2] -0.012 | gefitinib -0.032 | [3] -0.128 | lapatinib 0.014 | pictilisib -0.189

DTD2 (UniProt Q96FN9)
inactive: [1] 0.038 | filanesib 0.027 | zotarolimus 0.153 | idasanutlin -0.018 | [2] -0.207 | gefitinib -0.155 | lapatinib -0.067 | pictilisib -0.093
